# Data taken from patent US9693828B2, “Composition comprising acetic anhydride and a gadolinium complex, and method for the use in hyperpolarisation in MRI analysis” (BRACCO IMAGING S.P.A., priority 2011, dated 2017).
# Experiment: DNP hyperpolarisation of acetic anhydride with Finlandic acid trityl radical, with or without gadolinium complex (solid state polarisation build up)
# Type: physicochemical
# Details: for change of end polarisation of acetic anhydride by addition of the gadolinium complex, in comparison to ex. 1 (no gadolinium complex): factor / enhancement (times) versus radical only
# Method: A stock solution of radical was prepared by dissolving Finlandic acid (2.7 mg, 2.6 μmol) in unlabeled acetic anhydride (22.2 mg) yielding a solution with a concentration of 105 μmol/g.
# [1] = 13C DNP, acetic anhydride/1,1'-13C2 acetic anhydride, Finlandic acid radical 12.5 mM, gadolinium complex added as labelled (none for acetic anhydride, Example 1), FIG. 1
Compound,end polarisation value [1] [%],"end polarisation value (Example 5: 1,1'-13C2 acetic anhydride, Finlandic acid 12.8 mM, no gadolinium complex) [%]","change of end polarisation of acetic anhydride by addition of the gadolinium complex, in comparison to ex. 1 (no gadolinium complex)","change of end polarisation of acetic anhydride by addition of the gadolinium complex, in comparison to ex. 1 (no gadolinium complex) (listed as gadolinium complex of formula (I))","degree of polarisation of acetic anhydride relative to that obtainable with Gd-DOTAM (II) or complex of formula (III) (in the presence of a DNP agent, Figure 1) [times higher]"
"CCCCCCCCCCCCCCCCCCN(CCCCCCCCCCCCCCCCCC)C(=O)CN1CCN(CC(=O)[O-])CCN(CC(=O)[O-])CCN(CC(=O)[O-])CC1.[Gd+3] [Gadolinium complex II, [10-[2-(dioctadecylamino)-2-oxoethyl]-1,4,7,10-tetraazacyclododecane-1,4,7-triacetato(3-)]gadolinium, reference compound]",6,–,–,–,–
"CC(O)CN1CCN(CC(=O)[O-])CCN(CC(=O)[O-])CCN(CC(=O)[O-])CC1.[Gd+3] (centres unmarked) [Gadolinium complex III, [10-(2-hydroxypropyl)-1,4,7,10-tetraazacyclododecane-1,4,7-triacetato(3-)]gadolinium, reference compound]",7.5,–,–,–,–
CC(=O)OC(C)=O [acetic anhydride],5,5,–,–,–
"[[α1,α4,α7-tris[(phenylmethoxy)methyl]-1,4,7,10-tetraazacyclododecane-1,4,7,10-tetraacetato(4-)]gadolinate(1-)]hydrogen [Gadolinium complex I]",15,–,2,about 2,2
